Inconclusive means that the source gave no clear call. Such entries were picked first, then a sample of the others. Potencies of inconclusive entries are doubtful fits and often do not repeat. Calls of active or inactive are those of the source. Unless noted, calls come from the whole dose curve; as a rule, active = well fitted curve in the direction sought with a large enough effect; inconclusive = small, poorly fitted or top-dose-only effect, or another doubt; inactive = no such curve, though single readings can be large; an effect the other way counts as inactive or inconclusive.
Assays:
[1] = Quantitative High-Throughput drug screen in 47 multiple myeloma cell lines against the NCATS MIPE library collection: VP6_DJ cell viability assay (AID 1919867); note: nearly all actives have a fitted effect of over 40% in size
Outline: (§1)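 Readout: median RLU from CellTiter-Glo after 5 min at room temperature. Preceding step was 48 h drug treatment of 500 cells/well at 37 °C, 5% CO2, with DMSO-only and media-only control wells.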

By UniProt entry, the sequences of proteins in these tests, tags left out.
UniProt P10635, whole entry, looked up: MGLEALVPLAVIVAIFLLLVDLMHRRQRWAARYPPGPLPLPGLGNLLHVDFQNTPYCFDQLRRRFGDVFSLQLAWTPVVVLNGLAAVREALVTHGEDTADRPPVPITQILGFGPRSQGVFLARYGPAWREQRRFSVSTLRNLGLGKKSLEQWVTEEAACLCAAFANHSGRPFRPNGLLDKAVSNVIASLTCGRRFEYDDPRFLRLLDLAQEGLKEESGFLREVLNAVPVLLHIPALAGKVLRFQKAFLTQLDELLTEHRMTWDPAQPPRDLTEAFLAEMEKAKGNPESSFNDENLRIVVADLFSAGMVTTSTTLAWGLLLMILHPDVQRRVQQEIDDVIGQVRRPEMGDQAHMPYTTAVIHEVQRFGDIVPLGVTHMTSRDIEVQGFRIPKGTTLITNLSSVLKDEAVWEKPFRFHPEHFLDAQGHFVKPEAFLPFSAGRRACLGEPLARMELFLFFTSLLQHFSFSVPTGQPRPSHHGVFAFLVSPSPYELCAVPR
UniProt P05177, whole entry, looked up: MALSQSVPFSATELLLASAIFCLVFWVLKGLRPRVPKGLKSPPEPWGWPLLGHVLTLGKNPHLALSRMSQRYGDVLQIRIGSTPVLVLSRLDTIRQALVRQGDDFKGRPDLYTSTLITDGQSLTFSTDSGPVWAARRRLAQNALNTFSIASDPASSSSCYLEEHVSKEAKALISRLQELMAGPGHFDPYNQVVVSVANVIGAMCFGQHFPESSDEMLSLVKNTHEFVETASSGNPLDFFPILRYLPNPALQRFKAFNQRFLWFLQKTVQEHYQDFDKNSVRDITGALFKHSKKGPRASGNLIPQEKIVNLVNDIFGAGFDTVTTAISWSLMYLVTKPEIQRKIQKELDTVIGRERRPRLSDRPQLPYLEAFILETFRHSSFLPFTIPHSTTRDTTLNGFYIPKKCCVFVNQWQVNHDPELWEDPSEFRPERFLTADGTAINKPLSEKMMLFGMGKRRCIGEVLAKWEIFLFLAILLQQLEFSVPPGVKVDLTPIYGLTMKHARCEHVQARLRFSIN

[2] = Quantitative High-Throughput drug screen in 47 multiple myeloma cell lines against the NCATS MIPE library collection: UTMC2_PLB cell viability assay (AID 1919868); details: CellTiter-Glo ATP luminescence, 48 h; viability (% of DMSO control): at 45.8 µM (top of the series); note: nearly all actives have a fitted effect of over 55% in size;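 for viability (% of DMSO control): 100% = DMSO-only wells and 0% = media-only wells without cells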
Outline: as §1

[3] = Quantitative High-Throughput drug screen in 47 multiple myeloma cell lines against the NCATS MIPE library collection: PE2_PLB cell viability assay (AID 1919869); details: PE2_PLB myeloma cells viability, ATP luminescence, 48 h; viability (% of control): at 45.8 µM (top of the series); note: nearly all actives have a fitted effect of over 35% in size;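 for viability (% of control): 100% = DMSO-only wells and 0% = cell-free media-only wells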
Outline: as §1

[4] = Quantitative High-Throughput drug screen in 47 multiple myeloma cell lines against the NCATS MIPE library collection: PCM6_Riken cell viability assay (AID 1919870); note: nearly all actives have a fitted effect of over 30% in size;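 for viability (% of control): 100% = DMSO-only wells and 0% = media-only wells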
Outline: as §1

[5] = Quantitative High-Throughput drug screen in 47 multiple myeloma cell lines against the NCATS MIPE library collection: RPMI8226_ATCC cell viability assay (AID 1919871); details: RPMI8226 myeloma viability, CellTiter-Glo ATP luminescence, 48 h; viability (% of control): at 45.8 µM (top of the series); note: nearly all actives have a fitted effect of over 30% in size
Outline: as §1

[6] = Quantitative High-Throughput drug screen in 47 multiple myeloma cell lines against the NCATS MIPE library collection: OPM2_DSMZ cell viability assay (AID 1919872); note: nearly all actives have a fitted effect of over 30% in size
Outline: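 Primary qHTS used for cherry-picking: cells at 500/well, library compounds for 48 h (37C, 5% CO2), luminescent ATP assay.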

[7] = Quantitative High-Throughput drug screen in 47 multiple myeloma cell lines against the NCATS MIPE library collection: KMS11_JCRBsus cell viability assay (AID 1919873); note: nearly all actives have a fitted effect of over 50% in size;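 for viability (% of control): 100% = DMSO-only wells and 0% = media-only wells without cells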
Outline: as §1

[8] = Quantitative High-Throughput drug screen in 47 multiple myeloma cell lines against the NCATS MIPE library collection: KMS28BM_JCRB cell viability assay (AID 1919874); details: CellTiter-Glo ATP, 48 h; viability, % of control: at 45.8 µM (top of the series); note: nearly all actives have a fitted effect of over 35% in size
Outline: as §1

[9] = qHTS for identification of novel therapeutic agents for treatment of microphthalmiaassociated transcription factor (MiT) renal cell carcinoma (RCC) (AID 1963991; calls by dose curve); details: TFE3-RCC UOK109 viability, CellTiter-Glo, 48 h; active = Z-AUC below -0.8 in all three lines
Outline: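 UOK109/UOK124/UOK145 (TFE3 fusions, three partners); 500 cells/well; MIPE v4.0, 1912 cpds, 11 conc.; 48 h, 37 C; CellTiter-Glo, 15 min RT; lum. Norm.: DMSO 100%, empty 0%.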

[10] = target: Cytochrome P450 2D6 (Homo sapiens) (UniProt P10635); experiment: qHTS for inhibitors of CYP2D6 against the NCATS DSHEA and TCM libraries (AID 1919972)
Outline: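 qHTS, concentration–response format with most substances from 19.5 nM. CYP2D6 + pro-luciferin substrate, 15 min with compound, then 1x NADPH regen, 30–45 min RT dark. Glo detection 30 min, luminescence. Quinidine control.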

[11] = target: Cytochrome P450 1A2 (Homo sapiens) (UniProt P05177); experiment: qHTS for inhibitors of CYPIA2 against the NCATS DSHEA and TCM libraries (AID 1919976); details: recombinant CYP1A2 enzyme activity, luminescence
Outline: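 Luminescence read-out: pro-luciferin converted to D-luciferin by CYP1A2, detected with P450-Glo reagent after 30 min RT. Enzyme plus substrate got compounds for 15 min RT; NADPH regeneration solution (final 1x) started a 30-45 min reaction, light-protected.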
Potency is the fitted concentration of half-maximal effect.

In the case of `O=C(O)CCCc1c[nH]c2ccccc12`, the Potency [1] was active: 26.4 µM, the Potency [2] was inconclusive: 10.5 µM [cytotoxic, single point] and the Potency [3] was “inactive”. For the same compound, the Potency [4] was inconclusive: 26.4 µM [cytotoxic, single point] and the Potency [5] was inconclusive: 16.6 µM [cytotoxic, partial curve, poor fit].

In the case of `CC1(C)O[C@H]2CC(=O)OC[C@]23[C@H]2CC[C@@]4(C)[C@H](c5ccoc5)OC(=O)[C@H]5O[C@]54[C@]2(C)C(=O)C[C@@H]13`, the Potency [1] was inconclusive: 11.8 µM [cytotoxic, full curve, poor fit], the Potency [2] was inconclusive: 0.0033 µM [rising, full curve, poor fit] and the Potency [3] was “inactive”. For the same compound, the Potency [4] was inconclusive: 0.0015 µM [rising, full curve, poor fit], the Potency [5] was “inactive” and the Potency [6] was “inactive”. For the same compound, the Potency [7] was “inactive” and the Potency [8] was “inactive”.

With `C[C@H]1O[C@H](O[C@H]2[C@H](O)[C@@H](O)[C@@H](O[C@H]3[C@H](O)[C@@H](O)C(O)O[C@H]3CO)O[C@H]2CO)[C@H](O)[C@@H](O)[C@H]1N[C@H]1C=C(CO)[C@@H](O)[C@H](O)[C@@H]1O` (some centres not stated) the Potency [1] was “inactive”, the Potency [2] was “inactive” and the Potency [3] was “inactive”. For the same compound, the Potency [4] was “inactive”, the Potency [5] was “inactive” and the Potency [6] was “inactive”. The Potency [7] was “inactive”.

In the case of `COc1cc(Nc2ncc3c(n2)-c2ccc(Cl)cc2C(c2c(F)cccc2OC)=NC3)ccc1C(=O)O`, the Potency [1] was inconclusive: 13.2 µM [cytotoxic, partial curve], the Potency [2] was inconclusive: 0.0235 µM [cytotoxic, full curve, poor fit] and the Potency [3] was inconclusive: 20.9 µM [cytotoxic, partial curve, poor fit]. For the same compound, the Potency [4] was inconclusive: 11.8 µM [cytotoxic, partial curve], the Potency [5] was inconclusive: 20.9 µM [cytotoxic, partial curve] and the Potency [6] was inconclusive: 26.4 µM [cytotoxic, partial curve, poor fit]. The Potency [7] was inconclusive: 0.0418 µM [cytotoxic, full curve], the Potency [8] was inconclusive: 0.0209 µM [cytotoxic, full curve, poor fit] and the Potency [9] was inconclusive: 20.9 µM [falling, partial curve].

With `Cc1ccc2c(c1)c1c(n2CCc2ccc(C)nc2)CCN(C)C1` the Potency [1] was inconclusive: 37.2 µM [cytotoxic, single point], the Potency [2] was inconclusive: 0.001 µM and the Potency [3] was “inactive”. The Potency [4] was “inactive”, the Potency [5] was inconclusive: 33.2 µM [cytotoxic, partial curve, poor fit] and the Potency [6] was inconclusive: 0.0013 µM [cytotoxic, full curve, poor fit]. For the same compound, the Potency [9] was inconclusive: 23.5 µM [falling, partial curve, poor fit].

In the case of `COc1ccc(CC2c3cc(OC)c(OC)cc3CC[N+]2(C)CCC(=O)OCCCCCOC(=O)CC[N+]2(C)CCc3cc(OC)c(OC)cc3C2Cc2ccc(OC)c(OC)c2)cc1OC` (configuration not stated), the Potency [1] was inconclusive: 1.84 µM [cytotoxic, full curve, poor fit], the Potency [2] was inconclusive: 0.52 µM [rising, full curve, poor fit] and the viability (% of control) [3] was inactive: 81% [at 5.15 µM]. For the same compound, the Potency [4] was inconclusive: 2.6 µM [cytotoxic, partial curve, poor fit], the Potency [5] was inconclusive: 0.0002 µM and the viability (% of control) [7] was inactive: 114% [at 5.15 µM].

In the case of `O=C(O)c1ccc(-n2nc(-c3ccccc3O)nc2-c2ccccc2O)cc1`, the Potency [1] was active: 16.6 µM, the Potency [2] was inconclusive: 16.6 µM [cytotoxic, partial curve, poor fit] and the Potency [3] was inconclusive: 18.7 µM [cytotoxic, single point]. The Potency [4] was active: 23.5 µM, the Potency [5] was inconclusive: 37.2 µM [cytotoxic, single point] and the Potency [6] was “inactive”. The Potency [9] was inconclusive: 37.2 µM.

In the case of `O=C(O)c1cccnc1`, the Potency [1] was active: 16.6 µM, the Potency [2] was inconclusive: 0.001 µM [cytotoxic] and the Potency [3] was “inactive”. The Potency [4] was inconclusive: 1.48 µM [cytotoxic, full curve, poor fit], the Potency [5] was “inactive” and the Potency [6] was “inactive”. The Potency [7] was inconclusive: 0.059 µM [cytotoxic, full curve, poor fit], the Potency [8] was inconclusive: 2.09 µM [cytotoxic, full curve, poor fit] and the Potency [10] was inconclusive: 0.0708 µM [inhibitor, full curve]. For the same compound, the Potency [11] was inconclusive: 7.08 µM [inhibitor, full curve, poor fit].

In the case of `COc1cc2c(cc1OC)[C@@H]1Cc3ccc(OC)c(OC)c3CN1CC2`, the Potency [1] was inconclusive: 0.187 µM [cytotoxic, full curve, poor fit], the Potency [2] was inconclusive: 3.72 µM [cytotoxic, full curve, poor fit] and the Potency [3] was inconclusive: 26.4 µM [cytotoxic, partial curve, poor fit]. For the same compound, the Potency [4] was inconclusive: 23.5 µM [cytotoxic, single point], the Potency [5] was active: 18.7 µM and the Potency [6] was active: 13.2 µM. The Potency [7] was active: 7.43 µM.

For `COc1cc(N2CCN(C)CC2)ccc1Nc1nc(N)c(C(=O)c2c(Cl)cccc2Cl)s1`, the Potency [1] was inconclusive: 37.2 µM [cytotoxic, single point], the Potency [2] was inconclusive: 33.2 µM [rising, partial curve, poor fit] and the Potency [3] was inconclusive: 18.7 µM [cytotoxic, partial curve, poor fit]. For the same compound, the Potency [4] was inconclusive: 37.2 µM [cytotoxic, single point], the Potency [5] was “inactive” and the Potency [6] was inconclusive: 0.0019 µM [cytotoxic, full curve, poor fit]. The Potency [9] was inconclusive: 23.5 µM [falling, partial curve].

With `CC(Cc1ccc(O)c(O)c1)(NN)C(=O)O` (configuration not stated) the Potency [1] was inconclusive: 3.72 µM [cytotoxic, full curve, poor fit], the Potency [2] was “inactive” and the Potency [3] was “inactive”. The Potency [4] was inconclusive: 1.05 µM [cytotoxic, full curve, poor fit], the Potency [5] was inconclusive: 41.8 µM [cytotoxic, partial curve, poor fit] and the Potency [6] was inconclusive: 33.2 µM [cytotoxic, single point].

With `CC(C)OC(=O)OCOP(=O)(CO[C@H](C)Cn1cnc2c(N)ncnc21)OCOC(=O)OC(C)C` the Potency [1] was inconclusive: 6.62 µM [cytotoxic, full curve], the Potency [2] was inconclusive: 0.001 µM [cytotoxic] and the Potency [3] was inconclusive: 18.7 µM [cytotoxic, partial curve]. The Potency [4] was active: 16.6 µM, the Potency [5] was inconclusive: 0.0066 µM [rising, full curve, poor fit] and the Potency [6] was “inactive”. For the same compound, the Potency [7] was “inactive”.

For `Nc1ccc(S(N)(=O)=O)cc1`, the Potency [1] was inconclusive: 0.0418 µM [rising, full curve, poor fit], the Potency [2] was “inactive” and the Potency [3] was “inactive”. The Potency [4] was inconclusive: 0.0332 µM [rising, full curve, poor fit] and the Potency [5] was “inactive”.

For `O=C(CN1C(=O)C2(CCCC2)NC[C@H]1c1cc(F)cc(F)c1)Nc1ccc2c(c1)C[C@@]1(C2)C(=O)Nc2ncccc21`, the Potency [1] was “inactive”, the Potency [2] was “inactive” and the Potency [3] was inconclusive: 0.0187 µM [rising, full curve, poor fit]. For the same compound, the Potency [4] was “inactive”.

For `CCCCC[C@H](O)C=C[C@H]1[C@H](O)CC(=O)[C@H]1CCCCCCC(=O)O`, the Potency [1] was inconclusive: 0.264 µM [cytotoxic, full curve, poor fit], the Potency [2] was inconclusive: 0.209 µM [cytotoxic, full curve, poor fit] and the Potency [3] was inconclusive: 18.7 µM [cytotoxic, partial curve, poor fit]. For the same compound, the Potency [4] was “inactive” and the Potency [5] was active: 0.105 µM.

For `Cn1cc(-c2ccc3ncc(Cc4ccc5ncccc5c4)n3n2)cn1`, the Potency [1] was inconclusive: 29.6 µM [cytotoxic, partial curve, poor fit], the Potency [2] was inconclusive: 0.0148 µM [rising, full curve, poor fit] and the Potency [3] was inconclusive: 20.9 µM [cytotoxic, partial curve, poor fit]. The Potency [4] was active: 13.2 µM, the Potency [5] was “inactive” and the Potency [6] was “inactive”. The Potency [7] was inconclusive: 23.5 µM [cytotoxic, partial curve, poor fit].

For `CCCc1nn(C)c2c(=O)[nH]c(-c3cc(S(=O)(=O)N4CCN(C)CC4)ccc3OCC)nc12`, the Potency [1] was inconclusive: 23.5 µM [cytotoxic, partial curve, poor fit], the Potency [2] was inconclusive: 0.0023 µM [cytotoxic, full curve, poor fit] and the Potency [3] was inconclusive: 20.9 µM [cytotoxic, single point]. The Potency [4] was inconclusive: 18.7 µM [cytotoxic, partial curve, poor fit], the Potency [5] was inconclusive: 14.8 µM [cytotoxic, partial curve] and the Potency [6] was inconclusive: 18.7 µM [cytotoxic, partial curve, poor fit]. The Potency [7] was inconclusive: 4.18 µM [cytotoxic, partial curve, poor fit], the Potency [8] was inconclusive: 23.5 µM [cytotoxic, single point] and the Potency [9] was inconclusive: 16.6 µM [falling, partial curve].

With `CCN(CC)CCOc1ccc(Cc2ccccc2)cc1` the Potency [1] was inconclusive: 37.2 µM [cytotoxic, single point], the Potency [2] was “inactive” and the Potency [3] was “inactive”. The Potency [4] was inconclusive: 0.264 µM [rising, full curve, poor fit], the Potency [5] was inconclusive: 3.72 µM [cytotoxic, full curve, poor fit] and the Potency [6] was “inactive”. For the same compound, the Potency [8] was inconclusive: 18.7 µM [cytotoxic, partial curve] and the Potency [9] was inconclusive: 20.9 µM [falling, partial curve, poor fit].

For `Cc1ccccc1C(C(=O)NC1CCCCC1)N(C(=O)CNc1ccc(C#N)cc1)c1cccc(F)c1` (configuration not stated), the Potency [1] was “inactive”, the Potency [2] was inconclusive: 1.05 µM [rising, full curve, poor fit] and the Potency [3] was “inactive”. The Potency [4] was inconclusive: 9.35 µM [cytotoxic, full curve, poor fit], the Potency [5] was active: 23.5 µM and the Potency [6] was “inactive”. The Potency [7] was inconclusive: 23.5 µM [cytotoxic, single point] and the viability, % of control [8] was inconclusive: 72.5% [cytotoxic].
